Converted amounts (≈) assume the structure as drawn.
Tests used:
[1] = system: S. aureus ATCC 43300 (MRSA); experiment: In vitro MIC bioassay (broth microdilution, 384 well); assay type: cell-based; settings: Staphylococcus aureus, read-out: MIC70 S. aureus ATCC 43300
Method: (§1) Minimal inhibitory concentrations against a selection of Gram-positive indicator organisms (MICs) were determined according to Clinical and Laboratory Standards Institute protocols by microdilution tests using in a 384 well format. The indicator strains were incubated in TSB medium over night until OD600-0.4, then diluted to OD600=0.1 in TSB medium and further 45× in assay medium (Mueller-Hinton broth, Difco). Inoculated medium was distributed into assay plates. Inoculated wells were added a 2× dilution series of either isolated compound or vancomycin (reference) diluted in DMSO, giving a final DMSO concentration in each well of 2.7%, and final concentrations of active compound between 0 and 540 μg/ml (23 different concentrations). Four parallels were assayed for each compound and concentration. 0.5 mg of the compound produced by strain M1152ΔmatAB (P08-G05_C16) was purified on preparative HPLC, and the pure compound was tested in bioassay against a panel of strains. The indicator organisms were M. luteus ATCC 9341, Staphylococcus aureus ATCC 29213, Staphylococcus aureus ATCC 43300 (MRSA), Enterococcus faecium CCUG 37832, Enterococcus faecium CTC 492.

S. aureus ATCC 29213 = experiment: as above; assay type: cell-based; settings: Staphylococcus aureus, ATCC29213, read-out: MIC70 S. aureus ATCC 29213
Method: as §1

CN[C@H](CC(C)C)C(=O)N[C@H]1C(=O)N[C@@H](CC(N)=O)C(=O)N[C@H]2C(=O)N[C@H]3C(=O)N[C@H](C(=O)N[C@H](C(=O)O)c4cc(O)cc(O)c4-c4cc3ccc4O)[C@H](O)c3ccc(c(Cl)c3)Oc3cc2cc(c3O[C@@H]2O[C@H](CO)[C@@H](O)[C@H](O)[C@H]2O[C@H]2C[C@](C)(N)[C@H](O)[C@H](C)O2)Oc2ccc(cc2Cl)[C@H]1O [Vancomycin, vancomycin]
MIC [1]: 1.06 µg/mL (≈ 0.731 µM)
MIC (S. aureus ATCC 29213): 1.06 µg/mL (≈ 0.731 µM)
